Assay results: patent US20030152959
For part of these data: Results from cells or extracts need not show a direct contact. For part of these data: No signal at the amounts used counts as a negative. For part of these data: A weaker result is weaker than the reference pair of the same experiment. For part of these data: The exact form of at least one protein or probe is not confirmed. For part of these data: Where a protein sequence is shown, tags need not be part of it.

The chains behind the UniProt entries cited, without tags or fusion partners. Residues count along the entry.
UniProt P11474, 76-423: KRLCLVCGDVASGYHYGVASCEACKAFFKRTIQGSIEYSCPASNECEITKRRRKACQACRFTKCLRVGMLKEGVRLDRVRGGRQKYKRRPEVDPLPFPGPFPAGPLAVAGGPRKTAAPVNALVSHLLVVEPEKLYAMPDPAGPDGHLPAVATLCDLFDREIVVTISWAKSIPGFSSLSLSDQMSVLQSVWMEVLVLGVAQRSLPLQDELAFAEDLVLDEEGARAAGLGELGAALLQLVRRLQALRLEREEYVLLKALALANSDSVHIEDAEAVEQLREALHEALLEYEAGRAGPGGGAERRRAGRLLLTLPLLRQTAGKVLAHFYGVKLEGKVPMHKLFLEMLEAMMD
UniProt P11474, 1-173: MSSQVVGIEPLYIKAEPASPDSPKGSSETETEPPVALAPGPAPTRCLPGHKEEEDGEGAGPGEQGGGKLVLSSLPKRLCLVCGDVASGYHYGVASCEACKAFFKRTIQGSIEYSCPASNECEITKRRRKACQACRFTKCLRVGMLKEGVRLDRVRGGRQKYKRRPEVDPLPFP
UniProt P11474, whole entry L413A/L418A: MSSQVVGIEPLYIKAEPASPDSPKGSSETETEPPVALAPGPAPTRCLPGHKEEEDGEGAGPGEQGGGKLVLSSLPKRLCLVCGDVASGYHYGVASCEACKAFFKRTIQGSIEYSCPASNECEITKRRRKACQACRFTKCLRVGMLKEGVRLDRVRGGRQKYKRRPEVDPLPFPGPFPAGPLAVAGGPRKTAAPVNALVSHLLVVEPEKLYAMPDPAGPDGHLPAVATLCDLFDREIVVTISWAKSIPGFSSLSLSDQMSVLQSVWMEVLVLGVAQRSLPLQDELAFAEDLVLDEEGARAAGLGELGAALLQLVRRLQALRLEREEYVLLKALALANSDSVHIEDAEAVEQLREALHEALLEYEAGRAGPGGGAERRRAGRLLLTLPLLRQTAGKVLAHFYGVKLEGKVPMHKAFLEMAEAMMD
UniProt P11474, whole entry E97G/A98S/A101V: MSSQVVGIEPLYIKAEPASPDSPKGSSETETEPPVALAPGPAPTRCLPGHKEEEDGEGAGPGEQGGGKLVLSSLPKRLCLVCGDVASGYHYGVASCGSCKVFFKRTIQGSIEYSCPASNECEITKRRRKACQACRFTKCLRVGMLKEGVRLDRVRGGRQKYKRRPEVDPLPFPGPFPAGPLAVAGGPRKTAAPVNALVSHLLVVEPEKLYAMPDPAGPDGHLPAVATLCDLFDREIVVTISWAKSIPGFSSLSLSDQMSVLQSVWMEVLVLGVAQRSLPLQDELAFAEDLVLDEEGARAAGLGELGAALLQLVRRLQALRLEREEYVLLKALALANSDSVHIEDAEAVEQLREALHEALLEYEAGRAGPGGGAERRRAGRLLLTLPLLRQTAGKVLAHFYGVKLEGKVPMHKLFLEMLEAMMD
UniProt P03372, whole entry: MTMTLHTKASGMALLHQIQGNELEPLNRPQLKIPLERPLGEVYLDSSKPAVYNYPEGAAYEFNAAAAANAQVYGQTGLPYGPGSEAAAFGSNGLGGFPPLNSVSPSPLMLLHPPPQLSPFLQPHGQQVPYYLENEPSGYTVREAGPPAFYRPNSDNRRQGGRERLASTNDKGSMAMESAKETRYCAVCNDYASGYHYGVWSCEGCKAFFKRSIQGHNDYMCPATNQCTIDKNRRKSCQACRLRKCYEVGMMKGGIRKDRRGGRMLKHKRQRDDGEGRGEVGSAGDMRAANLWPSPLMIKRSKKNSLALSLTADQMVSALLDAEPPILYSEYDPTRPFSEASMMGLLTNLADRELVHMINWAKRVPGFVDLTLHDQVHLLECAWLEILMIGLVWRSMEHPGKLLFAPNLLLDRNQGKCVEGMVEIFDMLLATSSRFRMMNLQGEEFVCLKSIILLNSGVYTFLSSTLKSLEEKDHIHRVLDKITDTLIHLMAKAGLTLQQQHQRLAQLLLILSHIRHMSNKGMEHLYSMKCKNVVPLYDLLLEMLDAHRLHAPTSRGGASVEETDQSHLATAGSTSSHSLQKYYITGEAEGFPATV

Columns and labels:
GST-ERRα1 (Homo sapiens) [1] = target: GST-ERRα1 (Homo sapiens) (UniProt P11474); test: competition with a labelled probe; details: sequence assigned from listing, purified recombinant protein, protein details: N-terminal GST, E. coli
GST-ERRα1 (Homo sapiens) [2] = target: GST-ERRα1 (Homo sapiens) (UniProt P11474); test: footprint; details: DNase I protection of one half-site; sequence assigned from listing; purified recombinant protein; protein details: N-terminal GST, E. coli
[3] = target: ERRα1 (estrogen-related receptor alpha 1, NR3B1) (Homo sapiens) (UniProt P11474); test: activity in cells; details: MCF-7, 3xERE-TK-luc reporter; protein in a lysate after overexpression; only the site is given
[4] = target: ERRα1 76-423 (Homo sapiens) (UniProt P11474); test: EMSA; details: protein in a lysate after overexpression; protein details: COS-M6 whole-cell extract; label: 32P
[5] = target: ERRα1 (estrogen-related receptor alpha 1, NR3B1) (Homo sapiens) (UniProt P11474); test: EMSA; details: protein in a lysate after overexpression, label: 32P
[6] = target: ERα (estrogen receptor alpha) (Homo sapiens) (UniProt P03372); test: EMSA; details: protein in a lysate after overexpression, protein details: COS / COS-M6 whole-cell extract
[7] = target: ERRα1 1-173 (Homo sapiens) (UniProt P11474); test: EMSA; details: protein in a lysate after overexpression; protein details: COS-M6 whole-cell extract; label: 32P
[8] = target: ERRα1 L413A/L418A (Homo sapiens) (UniProt P11474); test: EMSA; details: protein in a lysate after overexpression; protein details: COS-M6 whole-cell extract; label: 32P
[9] = target: ERRα1 P-box E97G/A98S/A101V (Homo sapiens) (UniProt P11474); test: EMSA; details: protein in a lysate after overexpression; protein details: COS-M6 whole-cell extract; label: 32P
COUP-TF1 = target: T1, COUP-TF1 (UniProt P10589); test: EMSA; details: sequence assigned from listing; protein in a lysate after overexpression; protein details: COS whole-cell extract; label: 32P
T1 sequence (looked up, limits assumed): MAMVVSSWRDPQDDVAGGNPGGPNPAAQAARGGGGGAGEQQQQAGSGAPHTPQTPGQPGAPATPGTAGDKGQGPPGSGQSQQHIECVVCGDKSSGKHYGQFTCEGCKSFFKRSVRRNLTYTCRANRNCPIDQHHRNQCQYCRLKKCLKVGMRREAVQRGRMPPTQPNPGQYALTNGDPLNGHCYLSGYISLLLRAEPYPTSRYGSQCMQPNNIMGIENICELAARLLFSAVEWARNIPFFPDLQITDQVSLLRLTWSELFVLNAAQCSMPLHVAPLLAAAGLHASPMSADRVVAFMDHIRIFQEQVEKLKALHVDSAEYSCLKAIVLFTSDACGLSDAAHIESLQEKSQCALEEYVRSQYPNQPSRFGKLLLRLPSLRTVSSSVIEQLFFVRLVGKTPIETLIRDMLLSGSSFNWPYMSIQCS

GTTAAGGTTCGTAGGTCATGGA (double strand) [SV40 +55 site WT]
binding result (GST-ERRα1 (Homo sapiens) [1]; competed moderately, also DNase I and hydroxyl radical footprint): binds

TCAGAGGTTATTTCAGGCCATGGT (double strand) [SV40 +1 site WT]
binding result (GST-ERRα1 (Homo sapiens) [2]): binds

AGCTAACTAAAGGTCACAAGCTGCTTCAGATGATC (double strand) [Prolactin D]
binding result (GST-ERRα1 (Homo sapiens) [1]; bound very well): binds

TAAGCTTAGGTCACAGTGACCTAAGCTTA (double strand) [Consensus palindromic ERE]
activity on this sequence [3]: active
binding result [4]: binds
binding result [5]: binds
binding result ([6]; supershifted by H222, 100 mM NaCl, label: 32P): binds
binding result [7]: binds
binding result [8]: binds
binding result [9]: no binding

CGTTAAGGTTCCAAGGTCATGGACTG (double strand) [SV40 +55 UP mutant]
binding result (GST-ERRα1 (Homo sapiens) [1]; competed very well, variant of SV40 +55 site WT): binds

AGCTTCGAGGAGGTCACAGTGACCTGGAGCGGATC (double strand) [Vitellogenin ERE]
binding result (GST-ERRα1 (Homo sapiens) [1]; moderate, label: 32P): binds
binding result (COUP-TF1): no binding
binding result [5]: binds
binding result ([6]; more efficient than ERRα, sequence assigned from listing, label: …): binds

CCTGCAAGGTCACGGTGGCCACCCG (double strand) [pS2 ERE probe]
binding result ([5]; higher affinity than ERα): binds
binding result ([6]; lower affinity than ERRα, label: 32P): binds more weakly

AGCTTCGAGGAGATCACAGTGATCTGGAGCGGATC (double strand) [Vitellogenin ERE core mutant]
binding result (GST-ERRα1 (Homo sapiens) [1]; core mutant, complete loss, variant of Vitellogenin ERE): no binding
